# Some of the results follow.
# B1: PX14343I-pdi-501-30-501 (Parabacteroides distasonis) (protein)
# chain: SDQYSTETFWKTKEHASAGIMGCYNALKLWRSLHTMEFDMLTANAMPYNEANGTQAIGKGEHLSTTALIGSLWKNCYVGIGRTNTFIANVGGVDMDESEKAKMVGEAKFLRAFYYLSLVDKFGGVPLIIDAPNADEQAELPRNSKEEVVNQIVKDLEEAAAVLPDTYASSDLGRATKGAALALKARTLLYNSRWAEAAQAAKQVMESGVYQLFNDYRHFFSEDNKYNCEVIFDIEAKLPEYPTDYDQNIWRLNRPAPLKELVDTYLCVDGKTIEESPLYDPTRPYENRDPRLLKSIVCIGYPYLGKTITKEDVATTGFGVKKYTSYEDDVTIPLVERSAFNFILIRYAEVLLTYAEAQNEASGPDQSVYDAINQLRRRPDINMPEVPKGLTKDQMREVIRRERRIELTFEGLYYSDILRWKTAEKENNGMMHNYEGIEVVKRSFNPKRDYLWPIPYNQTVLNPNLEQNPNWD
# What was measured:
# Experiment in all cases: glycan array binding signal (z-score within array); higher = stronger binding
# Conditions in all cases: glycan notation: IUPAC condensed, linker removed
# [1] = molecular target: Gal(b1-4)GlcNAc(b1-6)GalNAc
# Summary of the method: (§1)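 Glycan array data were curated from 3228 arrays in the Consortium for Functional Glycomics database and kept only where the protein sequence was available. Glycan names were converted to IUPAC-condensed notation, and columns mapping to the same glycan were averaged. The binding signal is a within-array Z-score, averaged across arrays of the same protein sequence at different concentrations or buffers and across linkers. Negative Z-scores can be read as non-binding.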
# [2] = molecular target: Gal(b1-4)GlcNAc(b1-6)[Gal(b1-3)]GalNAc
# Summary of the method: as §1
# [3] = molecular target: Gal(b1-4)GlcNAc(b1-6)[Gal(b1-4)GlcNAc(b1-3)]GalNAc
# Summary of the method: as §1
# [4] = molecular target: Gal(b1-4)GlcNAc6P
# Summary of the method: as §1
# [5] = molecular target: Gal(b1-6)Gal
# Summary of the method: as §1
# [6] = molecular target: Gal3S(b1-3)GalNAc
# Summary of the method: as §1
# [7] = molecular target: Gal3S(b1-3)GlcNAc
# Summary of the method: as §1
# [8] = molecular target: Gal3S(b1-3)[Fuc(a1-4)]GlcNAc
# Summary of the method: as §1
# [9] = molecular target: Gal3S(b1-4)Glc
# Summary of the method: as §1
# [10] = molecular target: Gal3S(b1-4)Glc6S
# Summary of the method: as §1
# [11] = molecular target: Gal3S(b1-4)GlcNAc
# Summary of the method: as §1
# [12] = molecular target: Gal3S(b1-4)[Fuc(a1-3)]Glc6S
# Summary of the method: as §1
# [13] = molecular target: Gal3S(b1-4)[Fuc(a1-3)]GlcNAc
# Summary of the method: as §1
# [14] = molecular target: Gal3S(b1-4)[Fuc(a1-3)]GlcNAc6S
# Summary of the method: as §1
# [15] = molecular target: Gal3S4S(b1-4)GlcNAc
# Summary of the method: as §1
# [16] = molecular target: Gal3S6S(b1-4)GlcNAc
# Summary of the method: as §1
# [17] = molecular target: Gal3S6S(b1-4)GlcNAc6S
# Summary of the method: as §1
# [18] = molecular target: Gal4S(b1-4)GlcNAc
# Summary of the method: as §1
# [19] = molecular target: Gal4S6S(b1-4)GlcNAc
# Summary of the method: as §1
# [20] = molecular target: Gal6P(b1-4)GlcNAc
# Summary of the method: as §1
# [21] = molecular target: Gal6S(b1-3)GlcNAc
# Summary of the method: as §1
# [22] = molecular target: Gal6S(b1-3)GlcNAc6S
# Summary of the method: as §1
# [23] = molecular target: Gal6S(b1-4)Glc
# Summary of the method: as §1
# [24] = molecular target: Gal6S(b1-4)Glc6S
# Summary of the method: as §1
# [25] = molecular target: Gal6S(b1-4)GlcNAc
# Summary of the method: as §1
# [26] = molecular target: Gal6S(b1-4)GlcNAc6S
# Summary of the method: as §1
# [27] = molecular target: GalNAc(a1-3)Gal
# Summary of the method: as §1
# [28] = molecular target: GalNAc(a1-3)GalNAc
# Summary of the method: as §1
# [29] = molecular target: GalNAc(a1-3)GalNAc(b1-3)Gal(a1-4)Gal(b1-4)Glc
# Summary of the method: as §1
# [30] = molecular target: GalNAc(a1-3)GalNAc(b1-3)Gal(a1-4)Gal(b1-4)GlcNAc
# Summary of the method: as §1
# [31] = molecular target: GalNAc(b1-3)Gal
# Summary of the method: as §1
# [32] = molecular target: GalNAc(b1-3)Gal(a1-4)Gal(b1-4)GlcNAc
# Summary of the method: as §1
# [33] = molecular target: GalNAc(b1-3)Gal(a1-4)Gal(b1-4)GlcNAc(b1-3)Gal(b1-4)Glc
# Summary of the method: as §1
# [34] = molecular target: GalNAc(b1-3)Gal(a1-6)Gal(b1-4)Glc
# Summary of the method: as §1
# [35] = molecular target: GalNAc(b1-3)GalNAc
# Summary of the method: as §1
# [36] = molecular target: GalNAc(b1-3)GlcNAc
# Summary of the method: as §1
# [37] = molecular target: GalNAc(b1-4)Gal(b1-4)Glc
# Summary of the method: as §1
# [38] = molecular target: GalNAc(b1-4)GlcNAc
# Summary of the method: as §1
binder,measurement,setting,value
B1,glycan array binding signal (z-score),[1],-0.209
same,glycan array binding signal (z-score),[2],-0.181
same,glycan array binding signal (z-score),[3],0.582
same,glycan array binding signal (z-score),[4],0.039
same,glycan array binding signal (z-score),[5],1.39
same,glycan array binding signal (z-score),[6],0.039
same,glycan array binding signal (z-score),[7],-0.097
same,glycan array binding signal (z-score),[8],-0.195
same,glycan array binding signal (z-score),[9],0.301
same,glycan array binding signal (z-score),[10],-0.187
same,glycan array binding signal (z-score),[11],-0.259
same,glycan array binding signal (z-score),[12],0.785
same,glycan array binding signal (z-score),[13],0.833
same,glycan array binding signal (z-score),[14],1.18
same,glycan array binding signal (z-score),[15],0.784
same,glycan array binding signal (z-score),[16],0.636
same,glycan array binding signal (z-score),[17],1.05
same,glycan array binding signal (z-score),[18],-0.724
same,glycan array binding signal (z-score),[19],0.386
same,glycan array binding signal (z-score),[20],-0.19
same,glycan array binding signal (z-score),[21],0.19
same,glycan array binding signal (z-score),[22],0.179
same,glycan array binding signal (z-score),[23],0.085
same,glycan array binding signal (z-score),[24],-0.321
same,glycan array binding signal (z-score),[25],0.216
same,glycan array binding signal (z-score),[26],-0.366
same,glycan array binding signal (z-score),[27],-0.903
same,glycan array binding signal (z-score),[28],-1.17
same,glycan array binding signal (z-score),[29],0.12
same,glycan array binding signal (z-score),[30],-0.071
same,glycan array binding signal (z-score),[31],-0.105
same,glycan array binding signal (z-score),[32],-0.047
same,glycan array binding signal (z-score),[33],0.203
same,glycan array binding signal (z-score),[34],-0.869
same,glycan array binding signal (z-score),[35],1.96
same,glycan array binding signal (z-score),[36],0.842
same,glycan array binding signal (z-score),[37],0.548
same,glycan array binding signal (z-score),[38],-0.264

# Exported as tab-separated lines: entries from further up
binder	measurement	setting	value
B1	glycan array binding signal (z-score)	[8]	-0.195
same	glycan array binding signal (z-score)	[9]	0.301
